Reference: the supplement of paper PMC7666118
This is one part of the list.

Sequences of proteins named here, by UniProt entry; tags and fusion partners are left off. A change or cut given only in a name is not applied to a line headed by its entry.
UniProt P62330: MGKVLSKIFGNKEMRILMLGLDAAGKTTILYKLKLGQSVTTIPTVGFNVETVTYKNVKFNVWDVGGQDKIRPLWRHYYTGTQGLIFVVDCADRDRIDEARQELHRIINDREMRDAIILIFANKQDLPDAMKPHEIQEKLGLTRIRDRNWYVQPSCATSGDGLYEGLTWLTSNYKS
UniProt Q6VMQ6: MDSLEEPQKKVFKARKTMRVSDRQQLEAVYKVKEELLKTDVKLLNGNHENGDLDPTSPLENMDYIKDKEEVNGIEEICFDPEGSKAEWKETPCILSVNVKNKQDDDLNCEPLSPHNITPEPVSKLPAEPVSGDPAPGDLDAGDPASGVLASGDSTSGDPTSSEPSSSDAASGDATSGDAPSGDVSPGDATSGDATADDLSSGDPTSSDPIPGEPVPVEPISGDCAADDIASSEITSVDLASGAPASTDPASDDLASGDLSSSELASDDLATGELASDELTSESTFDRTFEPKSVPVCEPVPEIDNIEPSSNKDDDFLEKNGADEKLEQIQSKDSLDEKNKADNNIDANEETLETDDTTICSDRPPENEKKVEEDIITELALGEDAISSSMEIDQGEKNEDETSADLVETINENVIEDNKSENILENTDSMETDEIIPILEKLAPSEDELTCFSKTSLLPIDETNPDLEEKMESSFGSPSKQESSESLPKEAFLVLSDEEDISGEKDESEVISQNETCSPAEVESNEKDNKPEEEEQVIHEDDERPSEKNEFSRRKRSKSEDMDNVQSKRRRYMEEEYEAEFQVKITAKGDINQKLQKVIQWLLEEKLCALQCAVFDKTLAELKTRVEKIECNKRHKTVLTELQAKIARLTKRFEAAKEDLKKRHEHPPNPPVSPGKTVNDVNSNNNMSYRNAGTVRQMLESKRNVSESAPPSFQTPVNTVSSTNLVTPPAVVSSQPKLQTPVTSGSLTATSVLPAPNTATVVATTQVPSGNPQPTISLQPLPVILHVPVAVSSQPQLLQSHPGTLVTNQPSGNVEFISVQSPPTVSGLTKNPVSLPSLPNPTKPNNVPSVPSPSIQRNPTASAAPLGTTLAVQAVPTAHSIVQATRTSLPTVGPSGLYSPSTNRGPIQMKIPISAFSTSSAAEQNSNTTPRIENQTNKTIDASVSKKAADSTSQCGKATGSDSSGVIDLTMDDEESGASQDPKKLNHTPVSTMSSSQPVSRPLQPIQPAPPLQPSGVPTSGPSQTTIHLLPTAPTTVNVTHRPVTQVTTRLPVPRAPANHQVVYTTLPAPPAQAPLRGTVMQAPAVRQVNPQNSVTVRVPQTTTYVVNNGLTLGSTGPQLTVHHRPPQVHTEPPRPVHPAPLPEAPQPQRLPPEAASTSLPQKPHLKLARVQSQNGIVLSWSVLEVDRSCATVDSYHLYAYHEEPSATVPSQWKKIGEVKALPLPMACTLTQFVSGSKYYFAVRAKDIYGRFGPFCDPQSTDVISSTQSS
UniProt Q6ZTN6: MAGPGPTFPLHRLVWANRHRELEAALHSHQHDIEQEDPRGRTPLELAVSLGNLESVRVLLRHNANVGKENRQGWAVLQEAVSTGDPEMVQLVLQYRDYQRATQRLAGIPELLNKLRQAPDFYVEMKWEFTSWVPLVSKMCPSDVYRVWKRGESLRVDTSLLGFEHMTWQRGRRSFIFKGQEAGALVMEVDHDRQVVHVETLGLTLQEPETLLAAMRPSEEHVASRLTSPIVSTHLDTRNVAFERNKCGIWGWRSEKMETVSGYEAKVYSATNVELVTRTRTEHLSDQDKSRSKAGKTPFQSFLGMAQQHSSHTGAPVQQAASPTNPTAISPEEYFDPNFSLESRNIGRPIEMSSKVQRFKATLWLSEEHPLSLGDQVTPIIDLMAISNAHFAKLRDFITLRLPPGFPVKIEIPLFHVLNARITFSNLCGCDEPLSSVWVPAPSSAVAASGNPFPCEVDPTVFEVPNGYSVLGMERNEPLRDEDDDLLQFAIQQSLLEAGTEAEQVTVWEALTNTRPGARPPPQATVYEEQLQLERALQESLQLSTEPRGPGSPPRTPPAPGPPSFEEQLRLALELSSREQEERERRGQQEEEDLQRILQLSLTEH
UniProt Q6NXE6: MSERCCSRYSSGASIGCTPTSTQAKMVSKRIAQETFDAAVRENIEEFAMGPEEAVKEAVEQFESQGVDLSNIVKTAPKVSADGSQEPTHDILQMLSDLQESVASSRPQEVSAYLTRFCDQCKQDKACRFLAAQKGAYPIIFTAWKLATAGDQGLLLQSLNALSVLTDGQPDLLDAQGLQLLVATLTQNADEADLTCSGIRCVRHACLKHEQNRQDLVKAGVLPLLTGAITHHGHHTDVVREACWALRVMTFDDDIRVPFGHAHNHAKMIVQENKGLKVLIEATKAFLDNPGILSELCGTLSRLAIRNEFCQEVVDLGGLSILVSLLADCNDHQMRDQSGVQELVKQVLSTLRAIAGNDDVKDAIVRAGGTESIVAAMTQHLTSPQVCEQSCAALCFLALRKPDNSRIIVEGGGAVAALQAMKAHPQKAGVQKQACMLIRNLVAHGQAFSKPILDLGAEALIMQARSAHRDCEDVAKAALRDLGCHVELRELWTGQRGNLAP
UniProt P54886: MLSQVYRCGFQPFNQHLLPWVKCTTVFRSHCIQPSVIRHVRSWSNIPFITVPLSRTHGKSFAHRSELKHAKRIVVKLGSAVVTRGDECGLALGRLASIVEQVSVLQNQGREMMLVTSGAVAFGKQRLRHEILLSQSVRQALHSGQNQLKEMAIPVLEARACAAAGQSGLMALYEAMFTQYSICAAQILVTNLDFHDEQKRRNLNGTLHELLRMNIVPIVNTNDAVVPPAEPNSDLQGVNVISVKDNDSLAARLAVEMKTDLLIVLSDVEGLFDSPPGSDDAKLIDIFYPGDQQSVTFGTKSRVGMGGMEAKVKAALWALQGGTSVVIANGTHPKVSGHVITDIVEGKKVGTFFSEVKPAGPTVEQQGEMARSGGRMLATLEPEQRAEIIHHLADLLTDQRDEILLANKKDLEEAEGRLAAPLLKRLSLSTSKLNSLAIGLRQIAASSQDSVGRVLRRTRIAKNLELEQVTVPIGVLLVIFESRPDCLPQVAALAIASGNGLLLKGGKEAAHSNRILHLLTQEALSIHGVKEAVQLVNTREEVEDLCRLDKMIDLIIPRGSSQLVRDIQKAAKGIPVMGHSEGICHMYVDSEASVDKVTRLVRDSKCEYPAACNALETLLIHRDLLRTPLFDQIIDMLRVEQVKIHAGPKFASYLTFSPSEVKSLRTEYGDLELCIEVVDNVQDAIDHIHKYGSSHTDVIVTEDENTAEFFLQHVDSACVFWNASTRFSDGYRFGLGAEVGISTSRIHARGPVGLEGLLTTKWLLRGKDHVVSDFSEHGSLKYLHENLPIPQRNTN
UniProt Q7Z5R6: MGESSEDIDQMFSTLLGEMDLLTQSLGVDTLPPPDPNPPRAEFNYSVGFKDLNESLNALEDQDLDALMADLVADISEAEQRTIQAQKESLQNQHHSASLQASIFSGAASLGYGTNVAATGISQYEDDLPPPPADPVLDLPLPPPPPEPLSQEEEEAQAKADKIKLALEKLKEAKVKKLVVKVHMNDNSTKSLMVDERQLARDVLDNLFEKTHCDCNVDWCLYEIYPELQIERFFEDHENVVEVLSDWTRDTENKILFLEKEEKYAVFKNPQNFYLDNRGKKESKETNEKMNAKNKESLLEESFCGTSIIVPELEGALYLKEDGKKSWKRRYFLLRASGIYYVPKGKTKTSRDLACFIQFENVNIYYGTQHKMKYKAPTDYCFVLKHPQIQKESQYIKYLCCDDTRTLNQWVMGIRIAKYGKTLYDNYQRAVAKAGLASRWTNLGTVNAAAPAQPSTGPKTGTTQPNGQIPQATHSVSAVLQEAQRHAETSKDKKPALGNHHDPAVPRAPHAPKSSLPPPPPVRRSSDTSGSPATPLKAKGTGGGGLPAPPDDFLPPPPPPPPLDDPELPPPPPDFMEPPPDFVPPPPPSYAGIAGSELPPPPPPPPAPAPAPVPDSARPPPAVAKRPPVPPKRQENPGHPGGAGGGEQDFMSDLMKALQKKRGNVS
UniProt P20073: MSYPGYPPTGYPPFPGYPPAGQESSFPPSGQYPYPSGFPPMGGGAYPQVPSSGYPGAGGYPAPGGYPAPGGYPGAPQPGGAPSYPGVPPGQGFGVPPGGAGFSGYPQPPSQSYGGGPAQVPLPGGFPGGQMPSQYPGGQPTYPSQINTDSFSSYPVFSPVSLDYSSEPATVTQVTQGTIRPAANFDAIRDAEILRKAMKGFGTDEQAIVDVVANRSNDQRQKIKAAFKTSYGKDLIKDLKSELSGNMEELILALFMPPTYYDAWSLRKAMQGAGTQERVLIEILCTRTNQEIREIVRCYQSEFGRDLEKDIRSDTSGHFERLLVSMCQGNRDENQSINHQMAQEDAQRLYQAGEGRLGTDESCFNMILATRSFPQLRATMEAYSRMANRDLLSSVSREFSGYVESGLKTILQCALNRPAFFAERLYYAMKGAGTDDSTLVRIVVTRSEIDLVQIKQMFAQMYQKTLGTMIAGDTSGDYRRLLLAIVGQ
UniProt P15144: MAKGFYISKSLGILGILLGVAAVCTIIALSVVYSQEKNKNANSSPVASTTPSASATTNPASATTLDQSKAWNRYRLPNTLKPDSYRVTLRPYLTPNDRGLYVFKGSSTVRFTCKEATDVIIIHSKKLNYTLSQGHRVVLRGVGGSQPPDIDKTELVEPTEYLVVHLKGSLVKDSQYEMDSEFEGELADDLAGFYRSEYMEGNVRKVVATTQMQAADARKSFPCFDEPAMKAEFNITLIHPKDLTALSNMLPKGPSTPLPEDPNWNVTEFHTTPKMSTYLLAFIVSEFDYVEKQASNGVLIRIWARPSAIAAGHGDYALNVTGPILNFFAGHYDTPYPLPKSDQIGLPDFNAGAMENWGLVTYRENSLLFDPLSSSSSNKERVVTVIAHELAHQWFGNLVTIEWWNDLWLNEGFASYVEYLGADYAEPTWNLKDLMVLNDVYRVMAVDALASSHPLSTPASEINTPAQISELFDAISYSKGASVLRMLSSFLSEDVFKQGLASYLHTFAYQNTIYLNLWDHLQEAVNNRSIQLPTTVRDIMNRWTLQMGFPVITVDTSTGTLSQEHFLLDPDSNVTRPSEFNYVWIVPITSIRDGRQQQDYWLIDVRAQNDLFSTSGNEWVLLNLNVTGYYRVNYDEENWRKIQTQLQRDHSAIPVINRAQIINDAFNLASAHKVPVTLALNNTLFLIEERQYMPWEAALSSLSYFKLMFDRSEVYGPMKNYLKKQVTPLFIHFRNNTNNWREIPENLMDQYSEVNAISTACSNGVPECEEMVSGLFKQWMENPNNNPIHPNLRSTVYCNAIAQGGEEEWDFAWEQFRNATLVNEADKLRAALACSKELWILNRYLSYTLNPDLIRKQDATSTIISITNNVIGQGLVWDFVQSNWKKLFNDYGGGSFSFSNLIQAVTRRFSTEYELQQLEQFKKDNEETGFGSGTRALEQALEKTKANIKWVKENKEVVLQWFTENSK
UniProt Q92974: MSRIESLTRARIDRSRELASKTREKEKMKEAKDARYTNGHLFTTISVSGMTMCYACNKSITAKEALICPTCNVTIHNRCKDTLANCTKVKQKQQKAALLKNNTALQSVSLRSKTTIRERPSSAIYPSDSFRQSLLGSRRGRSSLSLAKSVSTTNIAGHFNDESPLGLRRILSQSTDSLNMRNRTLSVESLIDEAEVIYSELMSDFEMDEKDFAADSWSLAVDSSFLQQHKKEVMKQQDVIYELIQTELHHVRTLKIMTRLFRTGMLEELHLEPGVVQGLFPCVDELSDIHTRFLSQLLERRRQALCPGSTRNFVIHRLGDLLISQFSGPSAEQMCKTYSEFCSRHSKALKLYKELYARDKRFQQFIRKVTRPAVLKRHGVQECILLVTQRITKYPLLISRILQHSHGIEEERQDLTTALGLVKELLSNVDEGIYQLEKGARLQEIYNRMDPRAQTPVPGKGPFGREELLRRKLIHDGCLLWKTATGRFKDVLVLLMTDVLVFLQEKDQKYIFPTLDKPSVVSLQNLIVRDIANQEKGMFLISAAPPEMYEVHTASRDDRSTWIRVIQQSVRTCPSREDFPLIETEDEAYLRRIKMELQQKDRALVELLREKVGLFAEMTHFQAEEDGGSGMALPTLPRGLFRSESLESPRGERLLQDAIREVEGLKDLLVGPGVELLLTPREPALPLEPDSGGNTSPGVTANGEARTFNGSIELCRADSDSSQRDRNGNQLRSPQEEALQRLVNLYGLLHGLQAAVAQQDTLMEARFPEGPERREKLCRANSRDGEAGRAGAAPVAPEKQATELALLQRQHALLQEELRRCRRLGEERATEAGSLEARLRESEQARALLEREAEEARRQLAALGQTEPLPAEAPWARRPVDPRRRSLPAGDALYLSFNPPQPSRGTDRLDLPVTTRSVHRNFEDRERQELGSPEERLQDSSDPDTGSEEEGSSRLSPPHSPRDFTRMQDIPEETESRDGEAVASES
UniProt O94817, whole entry: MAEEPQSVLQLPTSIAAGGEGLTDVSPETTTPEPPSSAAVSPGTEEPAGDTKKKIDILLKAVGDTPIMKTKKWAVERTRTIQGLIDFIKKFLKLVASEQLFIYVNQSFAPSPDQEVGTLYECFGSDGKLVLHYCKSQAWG

Compound: COc1ccc(Cn2ccc3cc(C)c(C(=O)NO)cc32)cc1
Experiment: dose-dependent thermal stabilisation call (2D-TPP, DLPTP, 10% FDR) (binary (1 = stabilised)); higher = stabilised by the compound
Conditions: system: HL-60 intact cells; concentration range 0.04-10 µM
Protocol: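 2D thermal proteome profiling in intact HL-60 cells treated with BRD-3811 (0, 0.04, 0.29, 2, 10 uM) for 90 min at 37 C, then heated 3 min at one of 12 temperatures (42-63.9 C). Soluble protein was quantified by TMT10 MS. The value is the DLPTP call of the paper: dose-dependent thermal stabilisation over all temperatures at 10% FDR (F-test of a dose-response against a flat model); one experiment, one call per tested protein.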

Target	dose-dependent thermal stabilisation call
ARRB2 (UniProt P32121)	inactive: 0
ANKRD11 (UniProt Q6UB99)	inactive: 0
ARF6 (UniProt P62330)	inactive: 0
ASF1A (UniProt Q9Y294)	inactive: 0
ATF7IP (UniProt Q6VMQ6)	inactive: 0
ANKRD13D (UniProt Q6ZTN6)	inactive: 0
ARMC6 (UniProt Q6NXE6)	inactive: 0
AFF4 (UniProt Q9UHB7)	inactive: 0
ARF3 (UniProt P61204)	inactive: 0
ALDH18A1 (UniProt P54886)	inactive: 0
ALG12 (UniProt Q9BV10)	inactive: 0
APBB1IP (UniProt Q7Z5R6)	inactive: 0
APRT (UniProt P07741)	inactive: 0
ANXA7 (UniProt P20073)	inactive: 0
ATAD3A (UniProt Q9NVI7)	inactive: 0
AKAP13 (UniProt Q12802)	inactive: 0
ANGEL2 (UniProt Q5VTE6)	inactive: 0
AKR7A2 (UniProt O43488)	inactive: 0
ALDH1B1 (UniProt P30837)	inactive: 0
ARPC1B (UniProt O15143)	inactive: 0

Quoted at random: three entries already listed, in no set order.
Target	dose-dependent thermal stabilisation call
ARF6 (UniProt P62330)	inactive: 0
ANKRD11 (UniProt Q6UB99)	inactive: 0
AFF4 (UniProt Q9UHB7)	inactive: 0

The listing continues.

Target	dose-dependent thermal stabilisation call
ALDH1L2 (UniProt Q3SY69)	inactive: 0
AP2B1 (UniProt P63010)	inactive: 0
ATL3 (UniProt Q6DD88)	inactive: 0
AP1G2 (UniProt O75843)	inactive: 0
ATF6B (UniProt Q99941)	inactive: 0
AGK (UniProt Q53H12)	inactive: 0
ARPC5L (UniProt Q9BPX5)	inactive: 0
ANPEP (UniProt P15144)	inactive: 0
ARHGAP4 (UniProt P98171)	inactive: 0
ARHGEF7 (UniProt Q14155)	inactive: 0
ARHGEF2 (UniProt Q92974)	inactive: 0
ATG12 (UniProt O94817)	inactive: 0
AIFM1 (UniProt O95831)	active: 1
ARL8A (UniProt Q96BM9)	inactive: 0
ALDH1A2 (UniProt O94788)	inactive: 0
AP1GBP1 (UniProt Q9UMZ2)	inactive: 0
ALKBH2 (UniProt Q6NS38)	inactive: 0
AFG3L2 (UniProt Q9Y4W6)	inactive: 0
ARL2BP (UniProt Q9Y2Y0)	inactive: 0
AHSA1 (UniProt O95433)	inactive: 0
